Patent US10472352B2, “Rac inhibitors” (Geneyus LLC, priority 2017, dated 2019)

Experiments:
[1] = target: His-Rac1 / GST-PBD (PAK Binding Domain) (Homo sapiens, UniProt P63000); experiment: Rac Activation AlphaScreen Assay (Rac1 AS); details: 500 nM GTPγS, 37° C., 1 hour, 'positive' = signal generated was higher than the positive control; for IC50: read-out: Rac1 AS IC50
Rac1 protein = Rac1 protein (Homo sapiens, UniProt P63000); experiment: Fluorescence Polarization Assay (Rac1 FP); details: read-out: Rac1 FP IC50; 125 nM his-tagged Rac1, 12.5 nM Bodipy-TR GTPγS, 30 minutes at 37° C.
[2] = tested on: MCF-7 human breast cancer cell line; experiment: Cell Viability Assay (MCF7), PrestoBlue; details: read-out: MCF7 IC50, MCF-7 cells, three days after drug treatment

SMILES	IC50 [1] [µM]	IC50 (Rac1 protein) [µM]	IC50 [2] [µM]	Rac1 AS IC50(uM) [1]
O=C(C1CCOCC1)N1CCN(Cc2cn(CCCCCCSc3ccnc4cc(C(F)(F)F)ccc34)nn2)CC1	28.2	2.02	37.8	–
COc1ccc(N(C)Cc2cn(CCCCCCSc3ccnc4cc(C(F)(F)F)ccc34)cn2)cc1	6.5	0.36	6.7	–
CC(=O)N1CCC(Cc2cn(CCCCCCSc3ccnc4cc(C(F)(F)F)ccc34)nn2)CC1	23.1	1.27	19.5	–
Clc1ccc2c(SCCCCCCn3cc(CN4CCOCC4)nn3)ccnc2c1	–	2.57	9.2	positive

Structures were worked out from names or drawings and are uncertain.
